The source of these data is paper doi:10.1101/2023.10.24.563645.

Chains of the proteins cited; added tags and fusions are not shown.
UniProt P10275, whole entry: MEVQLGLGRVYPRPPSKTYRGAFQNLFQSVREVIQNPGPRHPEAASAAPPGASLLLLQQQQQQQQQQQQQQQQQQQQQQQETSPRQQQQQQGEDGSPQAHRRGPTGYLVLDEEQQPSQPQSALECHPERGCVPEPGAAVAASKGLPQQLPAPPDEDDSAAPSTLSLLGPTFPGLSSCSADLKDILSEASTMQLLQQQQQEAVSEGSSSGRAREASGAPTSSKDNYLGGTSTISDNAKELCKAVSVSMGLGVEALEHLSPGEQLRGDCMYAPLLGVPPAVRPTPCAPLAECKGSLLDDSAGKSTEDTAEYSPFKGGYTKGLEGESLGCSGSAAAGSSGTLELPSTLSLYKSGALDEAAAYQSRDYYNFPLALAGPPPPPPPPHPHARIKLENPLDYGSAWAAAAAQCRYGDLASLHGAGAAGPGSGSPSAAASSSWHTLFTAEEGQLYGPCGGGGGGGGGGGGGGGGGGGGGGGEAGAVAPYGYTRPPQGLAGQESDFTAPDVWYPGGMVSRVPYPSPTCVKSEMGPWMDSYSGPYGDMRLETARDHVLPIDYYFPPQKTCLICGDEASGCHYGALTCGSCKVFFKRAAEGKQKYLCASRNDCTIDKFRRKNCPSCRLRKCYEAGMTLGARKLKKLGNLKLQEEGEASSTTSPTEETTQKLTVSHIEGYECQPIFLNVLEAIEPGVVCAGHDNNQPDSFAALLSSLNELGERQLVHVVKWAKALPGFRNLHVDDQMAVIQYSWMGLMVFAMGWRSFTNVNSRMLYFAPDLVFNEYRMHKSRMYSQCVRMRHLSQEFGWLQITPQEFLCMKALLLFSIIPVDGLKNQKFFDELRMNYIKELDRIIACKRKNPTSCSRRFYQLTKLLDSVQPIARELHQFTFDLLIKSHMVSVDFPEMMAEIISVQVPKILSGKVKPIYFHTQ

Assay [1] has as its target androgen receptor (AR) with Flag tag (UniProt P10275). Nature of the assay: co-IP.
Assay [2] has as its target SCAN domain of ZNF397 with Flag tag (human (cDNA from HEK293T)) (UniProt Q8NF99). As to the kind of experiment: co-IP.

Results are given in words; binding and its absence hold for the method and conditions named. In cells and extracts the contact can be indirect. Binding calls can cover weak binding; strength is not graded here.

As for “SCAN domain of ZNF397 with TY1 tag (from UniProt Q8NF99) (domain or fragment)”, in assay [1], the binding result is “binds”.
For “cysteine-rich dioxygenase (CD) domain of TET2 with Myc tag (from UniProt Q6N021) (domain or fragment)”, the binding entry in assay [2] is “binds”.
